Measurements taken from the supplement of paper PMC10849652.
Some of the results follow.

The chains behind the UniProt entries cited, without tags or fusion partners. Where a name states a change or a piece, a line headed by the entry shows the natural chain unless it says otherwise.
UniProt Q96H35: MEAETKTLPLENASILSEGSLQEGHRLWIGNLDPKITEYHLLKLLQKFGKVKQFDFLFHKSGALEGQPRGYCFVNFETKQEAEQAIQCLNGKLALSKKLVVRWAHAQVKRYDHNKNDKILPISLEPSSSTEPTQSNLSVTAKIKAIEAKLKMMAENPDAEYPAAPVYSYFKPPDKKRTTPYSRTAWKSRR
UniProt P49796: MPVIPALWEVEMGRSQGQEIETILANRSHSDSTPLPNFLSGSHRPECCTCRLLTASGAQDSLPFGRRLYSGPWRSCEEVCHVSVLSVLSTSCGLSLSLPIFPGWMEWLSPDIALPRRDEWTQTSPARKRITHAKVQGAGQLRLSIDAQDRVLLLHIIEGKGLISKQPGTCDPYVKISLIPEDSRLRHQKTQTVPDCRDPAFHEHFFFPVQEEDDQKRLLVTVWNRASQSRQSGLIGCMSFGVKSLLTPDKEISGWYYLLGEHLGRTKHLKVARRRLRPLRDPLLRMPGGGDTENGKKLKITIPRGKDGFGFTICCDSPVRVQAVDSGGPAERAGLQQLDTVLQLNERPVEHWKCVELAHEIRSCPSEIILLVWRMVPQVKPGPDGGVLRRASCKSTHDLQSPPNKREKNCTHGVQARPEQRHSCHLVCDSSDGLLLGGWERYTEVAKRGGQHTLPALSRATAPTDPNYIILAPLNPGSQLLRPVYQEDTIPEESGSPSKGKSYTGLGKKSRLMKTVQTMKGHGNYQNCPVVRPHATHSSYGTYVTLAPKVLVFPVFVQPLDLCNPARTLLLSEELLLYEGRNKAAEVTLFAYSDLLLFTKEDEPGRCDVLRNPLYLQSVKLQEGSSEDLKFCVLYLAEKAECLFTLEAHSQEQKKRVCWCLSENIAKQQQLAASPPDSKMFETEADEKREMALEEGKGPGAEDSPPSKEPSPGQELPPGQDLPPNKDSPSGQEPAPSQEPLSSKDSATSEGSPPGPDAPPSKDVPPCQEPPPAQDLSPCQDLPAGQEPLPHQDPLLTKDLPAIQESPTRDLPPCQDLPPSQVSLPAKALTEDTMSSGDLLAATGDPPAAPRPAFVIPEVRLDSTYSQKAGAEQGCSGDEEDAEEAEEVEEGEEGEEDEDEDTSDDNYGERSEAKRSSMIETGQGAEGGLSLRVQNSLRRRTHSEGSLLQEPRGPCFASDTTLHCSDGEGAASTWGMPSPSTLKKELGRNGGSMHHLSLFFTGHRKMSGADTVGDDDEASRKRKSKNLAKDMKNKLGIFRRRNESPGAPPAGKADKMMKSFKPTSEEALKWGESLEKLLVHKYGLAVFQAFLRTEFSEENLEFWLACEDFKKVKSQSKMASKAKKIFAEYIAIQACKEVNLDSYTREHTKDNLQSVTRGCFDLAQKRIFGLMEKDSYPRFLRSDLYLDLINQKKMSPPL
UniProt Q00765: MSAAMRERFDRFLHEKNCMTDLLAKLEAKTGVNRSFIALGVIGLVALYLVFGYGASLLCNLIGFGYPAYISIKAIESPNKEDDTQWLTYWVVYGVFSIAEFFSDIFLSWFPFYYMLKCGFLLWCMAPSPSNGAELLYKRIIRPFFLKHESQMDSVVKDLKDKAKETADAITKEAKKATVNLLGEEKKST
UniProt Q8N1G1: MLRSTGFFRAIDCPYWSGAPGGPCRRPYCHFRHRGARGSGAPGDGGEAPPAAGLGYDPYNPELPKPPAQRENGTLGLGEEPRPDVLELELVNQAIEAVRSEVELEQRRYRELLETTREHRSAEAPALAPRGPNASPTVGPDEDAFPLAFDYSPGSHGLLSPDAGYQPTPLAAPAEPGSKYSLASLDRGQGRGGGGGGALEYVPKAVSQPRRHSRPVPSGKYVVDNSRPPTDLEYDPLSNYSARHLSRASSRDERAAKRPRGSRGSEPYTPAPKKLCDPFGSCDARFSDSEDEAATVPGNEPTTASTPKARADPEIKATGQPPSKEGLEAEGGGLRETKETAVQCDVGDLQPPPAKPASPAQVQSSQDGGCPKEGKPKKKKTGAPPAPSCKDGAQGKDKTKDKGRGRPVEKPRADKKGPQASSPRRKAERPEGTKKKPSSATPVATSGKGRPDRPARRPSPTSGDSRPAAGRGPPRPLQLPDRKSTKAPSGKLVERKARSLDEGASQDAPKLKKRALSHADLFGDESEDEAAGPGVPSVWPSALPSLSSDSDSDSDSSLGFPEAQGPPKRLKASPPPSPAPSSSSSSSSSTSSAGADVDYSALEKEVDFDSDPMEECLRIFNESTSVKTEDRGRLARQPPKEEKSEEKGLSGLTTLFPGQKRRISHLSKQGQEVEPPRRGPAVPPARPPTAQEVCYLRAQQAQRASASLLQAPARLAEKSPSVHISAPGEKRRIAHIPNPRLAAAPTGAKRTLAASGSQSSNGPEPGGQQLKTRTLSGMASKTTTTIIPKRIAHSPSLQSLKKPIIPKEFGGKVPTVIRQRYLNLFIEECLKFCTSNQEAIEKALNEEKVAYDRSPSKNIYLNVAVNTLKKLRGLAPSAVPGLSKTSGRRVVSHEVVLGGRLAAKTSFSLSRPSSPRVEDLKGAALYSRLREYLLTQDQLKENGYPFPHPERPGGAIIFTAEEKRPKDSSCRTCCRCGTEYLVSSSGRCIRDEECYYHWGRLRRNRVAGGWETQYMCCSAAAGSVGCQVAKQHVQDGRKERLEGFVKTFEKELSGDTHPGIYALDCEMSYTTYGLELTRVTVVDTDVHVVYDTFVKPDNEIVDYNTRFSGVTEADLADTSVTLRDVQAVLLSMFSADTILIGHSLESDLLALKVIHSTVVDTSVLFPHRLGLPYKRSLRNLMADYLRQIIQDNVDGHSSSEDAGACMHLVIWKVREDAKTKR
UniProt Q9HBH5: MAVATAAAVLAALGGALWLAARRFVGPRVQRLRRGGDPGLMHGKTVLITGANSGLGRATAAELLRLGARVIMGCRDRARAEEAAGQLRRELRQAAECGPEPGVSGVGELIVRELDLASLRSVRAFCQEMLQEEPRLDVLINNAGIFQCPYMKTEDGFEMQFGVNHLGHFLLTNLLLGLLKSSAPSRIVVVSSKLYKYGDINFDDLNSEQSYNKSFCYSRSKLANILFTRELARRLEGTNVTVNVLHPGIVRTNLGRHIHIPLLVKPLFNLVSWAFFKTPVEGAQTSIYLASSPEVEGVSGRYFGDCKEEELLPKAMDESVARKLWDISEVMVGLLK
UniProt Q86WH2: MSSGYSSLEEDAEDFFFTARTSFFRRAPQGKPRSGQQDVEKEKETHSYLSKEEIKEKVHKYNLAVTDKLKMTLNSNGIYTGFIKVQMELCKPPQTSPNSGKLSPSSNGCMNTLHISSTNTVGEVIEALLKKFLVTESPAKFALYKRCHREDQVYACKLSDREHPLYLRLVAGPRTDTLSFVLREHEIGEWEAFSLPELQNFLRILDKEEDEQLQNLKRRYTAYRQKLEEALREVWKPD
UniProt Q02161: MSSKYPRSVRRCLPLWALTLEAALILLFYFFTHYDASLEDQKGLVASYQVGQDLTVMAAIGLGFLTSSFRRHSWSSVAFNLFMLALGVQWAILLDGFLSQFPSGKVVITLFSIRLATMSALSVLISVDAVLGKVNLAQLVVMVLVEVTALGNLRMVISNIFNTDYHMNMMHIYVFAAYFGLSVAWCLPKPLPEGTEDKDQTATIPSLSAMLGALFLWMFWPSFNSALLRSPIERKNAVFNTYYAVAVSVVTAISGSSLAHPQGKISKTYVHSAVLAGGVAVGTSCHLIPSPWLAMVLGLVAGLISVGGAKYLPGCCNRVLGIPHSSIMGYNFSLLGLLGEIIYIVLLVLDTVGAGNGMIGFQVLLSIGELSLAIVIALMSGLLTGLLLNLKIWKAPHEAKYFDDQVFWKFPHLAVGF
UniProt Q09028, whole entry, looked up: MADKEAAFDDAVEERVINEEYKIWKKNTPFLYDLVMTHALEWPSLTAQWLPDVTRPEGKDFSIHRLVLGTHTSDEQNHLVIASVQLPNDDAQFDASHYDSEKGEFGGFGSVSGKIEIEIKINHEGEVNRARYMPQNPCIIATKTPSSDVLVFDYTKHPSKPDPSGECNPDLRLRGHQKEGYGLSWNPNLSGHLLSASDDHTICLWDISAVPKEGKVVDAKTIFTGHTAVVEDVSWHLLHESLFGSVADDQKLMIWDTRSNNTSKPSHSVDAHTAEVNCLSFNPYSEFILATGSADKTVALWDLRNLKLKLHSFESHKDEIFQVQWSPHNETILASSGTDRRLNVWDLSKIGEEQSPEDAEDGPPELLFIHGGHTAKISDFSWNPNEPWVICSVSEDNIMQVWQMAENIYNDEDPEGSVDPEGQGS
UniProt Q9P260: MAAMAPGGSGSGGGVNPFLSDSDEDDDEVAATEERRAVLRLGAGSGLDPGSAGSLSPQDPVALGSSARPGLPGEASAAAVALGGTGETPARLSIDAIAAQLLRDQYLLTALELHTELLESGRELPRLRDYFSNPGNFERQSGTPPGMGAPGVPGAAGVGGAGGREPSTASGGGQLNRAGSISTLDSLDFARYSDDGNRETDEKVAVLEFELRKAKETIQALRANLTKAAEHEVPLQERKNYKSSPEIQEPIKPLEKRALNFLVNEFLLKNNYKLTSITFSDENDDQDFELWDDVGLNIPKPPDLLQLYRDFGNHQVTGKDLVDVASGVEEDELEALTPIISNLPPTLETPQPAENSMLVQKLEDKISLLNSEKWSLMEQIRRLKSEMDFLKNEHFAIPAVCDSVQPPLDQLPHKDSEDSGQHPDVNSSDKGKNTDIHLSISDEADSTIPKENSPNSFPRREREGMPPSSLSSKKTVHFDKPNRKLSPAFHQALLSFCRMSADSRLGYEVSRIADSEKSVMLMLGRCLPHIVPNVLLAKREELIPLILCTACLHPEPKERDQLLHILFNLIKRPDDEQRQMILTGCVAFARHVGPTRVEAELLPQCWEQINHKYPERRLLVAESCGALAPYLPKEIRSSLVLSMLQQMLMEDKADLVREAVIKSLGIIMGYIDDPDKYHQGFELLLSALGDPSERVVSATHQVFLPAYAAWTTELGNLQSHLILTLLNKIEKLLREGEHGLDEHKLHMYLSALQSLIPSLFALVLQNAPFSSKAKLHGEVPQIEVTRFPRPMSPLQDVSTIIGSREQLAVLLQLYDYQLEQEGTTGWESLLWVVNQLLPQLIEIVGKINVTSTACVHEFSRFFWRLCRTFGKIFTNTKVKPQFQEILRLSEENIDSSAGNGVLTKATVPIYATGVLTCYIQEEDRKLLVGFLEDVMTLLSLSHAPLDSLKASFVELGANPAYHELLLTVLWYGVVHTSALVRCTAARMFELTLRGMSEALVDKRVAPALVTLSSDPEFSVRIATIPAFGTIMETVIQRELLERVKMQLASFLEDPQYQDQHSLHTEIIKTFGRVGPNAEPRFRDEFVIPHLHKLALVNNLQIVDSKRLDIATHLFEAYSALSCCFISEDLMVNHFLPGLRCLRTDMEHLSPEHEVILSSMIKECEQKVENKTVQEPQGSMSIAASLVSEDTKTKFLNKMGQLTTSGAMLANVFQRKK
UniProt Q8N0T1: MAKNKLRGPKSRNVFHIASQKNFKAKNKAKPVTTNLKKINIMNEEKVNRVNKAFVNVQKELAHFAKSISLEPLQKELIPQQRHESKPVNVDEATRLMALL
UniProt Q9Y3P4: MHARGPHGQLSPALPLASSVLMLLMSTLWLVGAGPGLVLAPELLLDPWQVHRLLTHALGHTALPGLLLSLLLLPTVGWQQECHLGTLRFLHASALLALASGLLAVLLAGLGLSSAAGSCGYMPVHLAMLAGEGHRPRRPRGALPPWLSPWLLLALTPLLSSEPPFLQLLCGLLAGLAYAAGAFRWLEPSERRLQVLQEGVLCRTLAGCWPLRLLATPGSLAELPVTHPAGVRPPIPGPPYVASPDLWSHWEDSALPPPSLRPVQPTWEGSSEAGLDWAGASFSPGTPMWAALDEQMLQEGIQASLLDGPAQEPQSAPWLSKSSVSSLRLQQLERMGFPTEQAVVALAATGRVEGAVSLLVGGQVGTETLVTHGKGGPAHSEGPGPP
UniProt Q9Y388: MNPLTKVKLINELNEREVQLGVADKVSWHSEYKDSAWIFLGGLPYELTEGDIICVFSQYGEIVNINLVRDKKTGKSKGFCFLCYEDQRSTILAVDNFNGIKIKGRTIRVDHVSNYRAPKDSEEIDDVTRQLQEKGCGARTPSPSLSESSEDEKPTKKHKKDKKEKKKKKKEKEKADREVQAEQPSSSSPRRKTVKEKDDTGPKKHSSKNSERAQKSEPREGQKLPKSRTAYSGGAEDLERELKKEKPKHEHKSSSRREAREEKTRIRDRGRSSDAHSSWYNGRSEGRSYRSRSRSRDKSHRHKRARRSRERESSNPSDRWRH
UniProt Q9Y644: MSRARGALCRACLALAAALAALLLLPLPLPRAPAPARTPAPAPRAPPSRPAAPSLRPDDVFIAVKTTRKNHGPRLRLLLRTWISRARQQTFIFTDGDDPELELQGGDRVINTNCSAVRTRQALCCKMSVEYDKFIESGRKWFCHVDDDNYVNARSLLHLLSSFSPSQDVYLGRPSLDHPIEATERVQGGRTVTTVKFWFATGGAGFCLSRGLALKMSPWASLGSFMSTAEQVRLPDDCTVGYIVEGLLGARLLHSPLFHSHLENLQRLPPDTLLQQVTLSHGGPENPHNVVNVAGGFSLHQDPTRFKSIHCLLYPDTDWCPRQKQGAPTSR

Legend:
Experiment in all cases: log2 fold change, soluble protein after heating vs DMSO (PISA); higher = thermal stabilisation; K562 lysate, 10 uM; active = over 0.2 and 3.5 SD of the protein, either way, in both replicates (recomputed)
nilotinib = compound: Cc1cn(-c2cc(NC(=O)c3ccc(C)c(Nc4nccc(-c5cccnc5)n4)c3)cc(C(F)(F)F)c2)cn1 [nilotinib]
Outline: (§1)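 Pellets of K562 cells were dounce-homogenised in PBS pH 7.4 with 1 mM MgCl2, and the crude extract was held at 1 mg/mL protein for a 30 min treatment with 10 μM compound. Aliquots were heated for 3 min over 48°C-58°C and pooled before NP-40 was added to 0.5% at 4°C. The supernatant from 21,000xg for 90 min was quantified by TMTpro 16plex LC-MS/MS with channel sums equalised. Values are reported from duplicates as log-two fold change in thermal stability relative to solvent controls.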

[1] = compound: Cc1nc(Nc2n[nH]c3c2CN(C(=O)N[C@H](CN(C)C)c2ccccc2)C3(C)C)c2sccc2n1
Outline: as §1

[2] = compound: Cc1ncc(-c2ccnc(Nc3ccc(S(C)(=O)=O)cc3)n2)n1C(C)C
Outline: as §1

tipifarnib = compound: Cn1cncc1[C@@](N)(c1ccc(Cl)cc1)c1ccc2c(c1)c(-c1cccc(Cl)c1)cc(=O)n2C [tipifarnib]
Outline: as §1

quisinostat = compound: Cn1cc(CNCC2CCN(c3ncc(C(=O)NO)cn3)CC2)c2ccccc21 [quisinostat]
Outline: as §1

[3] = compound: NC(=O)Nc1cc(-c2cccc(F)c2)sc1C(=O)N[C@H]1CCCNC1
Outline: as §1

[4] = compound: NC(=O)c1cnc(N[C@@H]2CCCC[C@@H]2N)nc1Nc1cccc(-n2nccn2)c1
Outline: as §1

[5] = compound: NC1(c2ccc(-c3nc4ccn5c(=O)[nH]nc5c4cc3-c3ccccc3)cc2)CCC1
Outline: as §1

dasatinib = compound: Cc1nc(Nc2ncc(C(=O)Nc3c(C)cccc3Cl)s2)cc(N2CCN(CCO)CC2)n1 [dasatinib]
Outline: as §1

[6] = compound: Cn1cc(-c2ccc3c(c2)CCN3C(=O)Cc2cccc(C(F)(F)F)c2)c2c(N)ncnc21
Outline: as §1

Measured: log2 fold change

RBM18 (UniProt Q96H35)
inactive: nilotinib 0.035 | [1] 0.071 | [2] -0.251 | tipifarnib 0.028

RGS3 (UniProt P49796)
inactive: nilotinib 0.159 | [1] 0.035 | [2] -0.021 | quisinostat -0.089 | tipifarnib -0.136 | [3] 0.061 | [4] 0.104 | [5] 0.018

REEP5 (UniProt Q00765)
inactive: nilotinib 0.107 | [1] -0.011 | dasatinib 0.056 | [2] 0.003 | [6] -0.012 | quisinostat 0.005 | tipifarnib 0.026 | [3] -0.024 | [4] 0 | [5] -0.023

RECQL5 (UniProt O94762)
inactive: nilotinib -0.026 | [1] 0.057 | dasatinib 0.023 | [2] 0.011 | [6] -0.04 | quisinostat -0.013 | tipifarnib -0.064 | [3] 0.034 | [4] 0.343 | [5] 0.049

RBCK1 (UniProt Q9BYM8)
inactive: nilotinib -0.043 | [1] -0.002 | dasatinib 0.024 | [2] -0.015 | [6] 0.055 | quisinostat -0.109 | tipifarnib 0.038 | [3] 0.063 | [4] -0.012 | [5] 0.002

REXO1 (UniProt Q8N1G1)
inactive: nilotinib 0.108 | [1] -0.036 | [2] 0.052 | quisinostat -0.039 | tipifarnib -0.165 | [3] 0.034 | [5] 0.04

RDH14 (UniProt Q9HBH5)
inactive: nilotinib 0.008 | [1] -0.006 | dasatinib 0.023 | [2] 0.004 | [6] 0.009 | quisinostat -0.016 | tipifarnib 0.065 | [3] -0.011 | [4] -0.077 | [5] 0.048

RDH10 (UniProt Q8IZV5)
inactive: nilotinib -0.004 | [1] 0.011 | dasatinib 0.132 | [2] 0.026 | [6] -0.022 | quisinostat 0.05 | tipifarnib 0.042 | [3] -0.002 | [4] -0.084 | [5] 0.073

RGCC (UniProt Q9H4X1)
inactive: [5] -0.072

RHBDD1 (UniProt Q8TEB9)
inactive: [4] 0.103

RASSF3 (UniProt Q86WH2)
inactive: quisinostat 0.001 | [3] 0.124 | [4] 0.134

RHD (UniProt Q02161)
inactive: dasatinib -0.05 | [6] 0.061

Quoted at random: 3 records from the list.
RDH10 (UniProt Q8IZV5)
inactive: nilotinib -0.004 | [1] 0.011 | dasatinib 0.132 | [2] 0.026 | [6] -0.022 | quisinostat 0.05 | tipifarnib 0.042 | [3] -0.002 | [4] -0.084 | [5] 0.073

RASSF3 (UniProt Q86WH2)
inactive: quisinostat 0.001 | [3] 0.124 | [4] 0.134

RHD (UniProt Q02161)
inactive: dasatinib -0.05 | [6] 0.061

Further results follow:

RBMXL1 (UniProt Q96E39)
inactive: dasatinib -0.12 | [6] 0.028 | quisinostat 0.009 | [3] 0.096

RBFOX2 isoform 8 (UniProt O43251)
inactive: dasatinib 0.119 | [6] -0.167 | quisinostat -0.217 | [3] 0.323 | [4] -0.026 | [5] -0.064

RHBDD2 isoform 2 (UniProt Q6NTF9)
inactive: [5] -0.054

RGPD6 (UniProt H7BZ48)
inactive: quisinostat -0.022 | [3] 0.007

RBM15 (UniProt Q96T37)
inactive: dasatinib -0.158 | [6] -0.088 | quisinostat -0.02 | [3] 0.041 | [4] -0.002 | [5] 0.083

RBBP7 (UniProt C9J7L0)
inactive: nilotinib -0.133 | [1] 0.046 | [2] 0.222 | tipifarnib 0.039

RBBP4 isoform 4 (UniProt Q09028)
inactive: nilotinib -0.011 | [1] 0.026 | [2] 0.034 | tipifarnib 0.043 | [4] -0.058

RBP4 (UniProt P02753)
inactive: quisinostat 0.042 | [3] 0.174

RFX2 (UniProt P48378)
inactive: dasatinib -0.013 | [6] 0.173 | quisinostat 0.109 | [3] -0.003 | [4] 0.018

RBKS (UniProt Q9H477)
inactive: dasatinib -0.294 | [6] 0.184

RELCH (UniProt Q9P260)
inactive: dasatinib -0.01 | [6] -0.135 | quisinostat -0.034 | [3] 0.06 | [4] 0.169

RESF1 (UniProt Q9HCM1)
inactive: dasatinib -0.055 | [6] -0.089 | quisinostat 0.177 | [3] -0.041

RBBP4 isoform 2 (UniProt Q09028)
inactive: [4] 0.034

RFXANK (UniProt O14593)
inactive: dasatinib -0.026 | [6] -0.001 | quisinostat -0.082 | [3] 0.096 | [4] -0.003 | [5] 0.022

RC3H2 (UniProt Q9HBD1)
inactive: dasatinib -0.001 | [6] -0.003 | quisinostat -0.036 | [3] 0.001 | [4] 0.172

RETSAT (UniProt Q6NUM9)
inactive: dasatinib -0.1 | [6] -0.058 | [3] 0.152 | [4] -0.005 | [5] -0.051
active: quisinostat -0.485

RBIS (UniProt Q8N0T1)
inactive: dasatinib 0.02 | [6] 0.001 | quisinostat -0.115 | [3] -0.016 | [5] -0.007

RBBP9 (UniProt O75884)
inactive: quisinostat 0 | [3] -0.02 | [5] 0.062

RBM41 (UniProt Q96IZ5)
inactive: nilotinib -0.151 | [1] 0.065 | [2] -0.02 | tipifarnib 0.045

RHBDD3 (UniProt Q9Y3P4)
inactive: quisinostat 0.007 | [3] -0.179

RBM48 isoform 2 (UniProt Q5RL73)
inactive: dasatinib 0.033 | [6] -0.025 | quisinostat 0.003 | [3] 0.06 | [5] 0.027

RBMX2 (UniProt Q9Y388)
inactive: dasatinib 0.068 | [6] -0.133 | [4] -0.02 | [5] -0.004

RBMY1E (UniProt A6NEQ0)
inactive: dasatinib 0.079 | [6] 0.009 | quisinostat -0.242 | [3] 0.013 | [4] 0.077

RBM4B (UniProt Q9BQ04)
inactive: quisinostat -0.097 | [3] 0.176

RELL1 (UniProt Q8IUW5)
inactive: quisinostat -0.162 | [3] 0 | [5] -0.103

RBM4 isoform 3 (UniProt Q9BWF3)
inactive: quisinostat -0.094 | [3] 0.06

RAVER2 (UniProt Q9HCJ3)
inactive: dasatinib -0.106 | [6] -0.148 | quisinostat 0.064 | [3] -0.001 | [5] 0.267

REST (UniProt Q13127)
inactive: dasatinib -0.006 | [6] 0.055 | quisinostat -0.012 | [3] -0.083 | [4] 0.012 | [5] -0.068

RFNG (UniProt Q9Y644)
inactive: nilotinib 0.184 | [1] 0.054 | [2] -0.078 | tipifarnib -0.048
